Experimental data: PMC9663433
These are yes or no findings as the source states them, for the method shown. Binding seen in cells or lysates may run through a third protein. A yes stands for co-enrichment or nearness to the bait. Other partners may have been found.

Sequences of proteins named here, by UniProt entry; tags and fusion partners are left off. Residues count along the entry.
UniProt Q9NZQ7, residues 19-290: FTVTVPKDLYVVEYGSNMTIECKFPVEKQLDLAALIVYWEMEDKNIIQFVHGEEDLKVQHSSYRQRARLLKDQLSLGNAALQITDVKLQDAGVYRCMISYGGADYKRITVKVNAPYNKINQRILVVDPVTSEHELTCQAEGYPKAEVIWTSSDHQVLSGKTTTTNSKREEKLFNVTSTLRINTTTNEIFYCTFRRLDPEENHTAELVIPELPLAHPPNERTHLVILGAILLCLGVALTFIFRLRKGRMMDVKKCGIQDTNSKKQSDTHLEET
UniProt Q7Z6Z7: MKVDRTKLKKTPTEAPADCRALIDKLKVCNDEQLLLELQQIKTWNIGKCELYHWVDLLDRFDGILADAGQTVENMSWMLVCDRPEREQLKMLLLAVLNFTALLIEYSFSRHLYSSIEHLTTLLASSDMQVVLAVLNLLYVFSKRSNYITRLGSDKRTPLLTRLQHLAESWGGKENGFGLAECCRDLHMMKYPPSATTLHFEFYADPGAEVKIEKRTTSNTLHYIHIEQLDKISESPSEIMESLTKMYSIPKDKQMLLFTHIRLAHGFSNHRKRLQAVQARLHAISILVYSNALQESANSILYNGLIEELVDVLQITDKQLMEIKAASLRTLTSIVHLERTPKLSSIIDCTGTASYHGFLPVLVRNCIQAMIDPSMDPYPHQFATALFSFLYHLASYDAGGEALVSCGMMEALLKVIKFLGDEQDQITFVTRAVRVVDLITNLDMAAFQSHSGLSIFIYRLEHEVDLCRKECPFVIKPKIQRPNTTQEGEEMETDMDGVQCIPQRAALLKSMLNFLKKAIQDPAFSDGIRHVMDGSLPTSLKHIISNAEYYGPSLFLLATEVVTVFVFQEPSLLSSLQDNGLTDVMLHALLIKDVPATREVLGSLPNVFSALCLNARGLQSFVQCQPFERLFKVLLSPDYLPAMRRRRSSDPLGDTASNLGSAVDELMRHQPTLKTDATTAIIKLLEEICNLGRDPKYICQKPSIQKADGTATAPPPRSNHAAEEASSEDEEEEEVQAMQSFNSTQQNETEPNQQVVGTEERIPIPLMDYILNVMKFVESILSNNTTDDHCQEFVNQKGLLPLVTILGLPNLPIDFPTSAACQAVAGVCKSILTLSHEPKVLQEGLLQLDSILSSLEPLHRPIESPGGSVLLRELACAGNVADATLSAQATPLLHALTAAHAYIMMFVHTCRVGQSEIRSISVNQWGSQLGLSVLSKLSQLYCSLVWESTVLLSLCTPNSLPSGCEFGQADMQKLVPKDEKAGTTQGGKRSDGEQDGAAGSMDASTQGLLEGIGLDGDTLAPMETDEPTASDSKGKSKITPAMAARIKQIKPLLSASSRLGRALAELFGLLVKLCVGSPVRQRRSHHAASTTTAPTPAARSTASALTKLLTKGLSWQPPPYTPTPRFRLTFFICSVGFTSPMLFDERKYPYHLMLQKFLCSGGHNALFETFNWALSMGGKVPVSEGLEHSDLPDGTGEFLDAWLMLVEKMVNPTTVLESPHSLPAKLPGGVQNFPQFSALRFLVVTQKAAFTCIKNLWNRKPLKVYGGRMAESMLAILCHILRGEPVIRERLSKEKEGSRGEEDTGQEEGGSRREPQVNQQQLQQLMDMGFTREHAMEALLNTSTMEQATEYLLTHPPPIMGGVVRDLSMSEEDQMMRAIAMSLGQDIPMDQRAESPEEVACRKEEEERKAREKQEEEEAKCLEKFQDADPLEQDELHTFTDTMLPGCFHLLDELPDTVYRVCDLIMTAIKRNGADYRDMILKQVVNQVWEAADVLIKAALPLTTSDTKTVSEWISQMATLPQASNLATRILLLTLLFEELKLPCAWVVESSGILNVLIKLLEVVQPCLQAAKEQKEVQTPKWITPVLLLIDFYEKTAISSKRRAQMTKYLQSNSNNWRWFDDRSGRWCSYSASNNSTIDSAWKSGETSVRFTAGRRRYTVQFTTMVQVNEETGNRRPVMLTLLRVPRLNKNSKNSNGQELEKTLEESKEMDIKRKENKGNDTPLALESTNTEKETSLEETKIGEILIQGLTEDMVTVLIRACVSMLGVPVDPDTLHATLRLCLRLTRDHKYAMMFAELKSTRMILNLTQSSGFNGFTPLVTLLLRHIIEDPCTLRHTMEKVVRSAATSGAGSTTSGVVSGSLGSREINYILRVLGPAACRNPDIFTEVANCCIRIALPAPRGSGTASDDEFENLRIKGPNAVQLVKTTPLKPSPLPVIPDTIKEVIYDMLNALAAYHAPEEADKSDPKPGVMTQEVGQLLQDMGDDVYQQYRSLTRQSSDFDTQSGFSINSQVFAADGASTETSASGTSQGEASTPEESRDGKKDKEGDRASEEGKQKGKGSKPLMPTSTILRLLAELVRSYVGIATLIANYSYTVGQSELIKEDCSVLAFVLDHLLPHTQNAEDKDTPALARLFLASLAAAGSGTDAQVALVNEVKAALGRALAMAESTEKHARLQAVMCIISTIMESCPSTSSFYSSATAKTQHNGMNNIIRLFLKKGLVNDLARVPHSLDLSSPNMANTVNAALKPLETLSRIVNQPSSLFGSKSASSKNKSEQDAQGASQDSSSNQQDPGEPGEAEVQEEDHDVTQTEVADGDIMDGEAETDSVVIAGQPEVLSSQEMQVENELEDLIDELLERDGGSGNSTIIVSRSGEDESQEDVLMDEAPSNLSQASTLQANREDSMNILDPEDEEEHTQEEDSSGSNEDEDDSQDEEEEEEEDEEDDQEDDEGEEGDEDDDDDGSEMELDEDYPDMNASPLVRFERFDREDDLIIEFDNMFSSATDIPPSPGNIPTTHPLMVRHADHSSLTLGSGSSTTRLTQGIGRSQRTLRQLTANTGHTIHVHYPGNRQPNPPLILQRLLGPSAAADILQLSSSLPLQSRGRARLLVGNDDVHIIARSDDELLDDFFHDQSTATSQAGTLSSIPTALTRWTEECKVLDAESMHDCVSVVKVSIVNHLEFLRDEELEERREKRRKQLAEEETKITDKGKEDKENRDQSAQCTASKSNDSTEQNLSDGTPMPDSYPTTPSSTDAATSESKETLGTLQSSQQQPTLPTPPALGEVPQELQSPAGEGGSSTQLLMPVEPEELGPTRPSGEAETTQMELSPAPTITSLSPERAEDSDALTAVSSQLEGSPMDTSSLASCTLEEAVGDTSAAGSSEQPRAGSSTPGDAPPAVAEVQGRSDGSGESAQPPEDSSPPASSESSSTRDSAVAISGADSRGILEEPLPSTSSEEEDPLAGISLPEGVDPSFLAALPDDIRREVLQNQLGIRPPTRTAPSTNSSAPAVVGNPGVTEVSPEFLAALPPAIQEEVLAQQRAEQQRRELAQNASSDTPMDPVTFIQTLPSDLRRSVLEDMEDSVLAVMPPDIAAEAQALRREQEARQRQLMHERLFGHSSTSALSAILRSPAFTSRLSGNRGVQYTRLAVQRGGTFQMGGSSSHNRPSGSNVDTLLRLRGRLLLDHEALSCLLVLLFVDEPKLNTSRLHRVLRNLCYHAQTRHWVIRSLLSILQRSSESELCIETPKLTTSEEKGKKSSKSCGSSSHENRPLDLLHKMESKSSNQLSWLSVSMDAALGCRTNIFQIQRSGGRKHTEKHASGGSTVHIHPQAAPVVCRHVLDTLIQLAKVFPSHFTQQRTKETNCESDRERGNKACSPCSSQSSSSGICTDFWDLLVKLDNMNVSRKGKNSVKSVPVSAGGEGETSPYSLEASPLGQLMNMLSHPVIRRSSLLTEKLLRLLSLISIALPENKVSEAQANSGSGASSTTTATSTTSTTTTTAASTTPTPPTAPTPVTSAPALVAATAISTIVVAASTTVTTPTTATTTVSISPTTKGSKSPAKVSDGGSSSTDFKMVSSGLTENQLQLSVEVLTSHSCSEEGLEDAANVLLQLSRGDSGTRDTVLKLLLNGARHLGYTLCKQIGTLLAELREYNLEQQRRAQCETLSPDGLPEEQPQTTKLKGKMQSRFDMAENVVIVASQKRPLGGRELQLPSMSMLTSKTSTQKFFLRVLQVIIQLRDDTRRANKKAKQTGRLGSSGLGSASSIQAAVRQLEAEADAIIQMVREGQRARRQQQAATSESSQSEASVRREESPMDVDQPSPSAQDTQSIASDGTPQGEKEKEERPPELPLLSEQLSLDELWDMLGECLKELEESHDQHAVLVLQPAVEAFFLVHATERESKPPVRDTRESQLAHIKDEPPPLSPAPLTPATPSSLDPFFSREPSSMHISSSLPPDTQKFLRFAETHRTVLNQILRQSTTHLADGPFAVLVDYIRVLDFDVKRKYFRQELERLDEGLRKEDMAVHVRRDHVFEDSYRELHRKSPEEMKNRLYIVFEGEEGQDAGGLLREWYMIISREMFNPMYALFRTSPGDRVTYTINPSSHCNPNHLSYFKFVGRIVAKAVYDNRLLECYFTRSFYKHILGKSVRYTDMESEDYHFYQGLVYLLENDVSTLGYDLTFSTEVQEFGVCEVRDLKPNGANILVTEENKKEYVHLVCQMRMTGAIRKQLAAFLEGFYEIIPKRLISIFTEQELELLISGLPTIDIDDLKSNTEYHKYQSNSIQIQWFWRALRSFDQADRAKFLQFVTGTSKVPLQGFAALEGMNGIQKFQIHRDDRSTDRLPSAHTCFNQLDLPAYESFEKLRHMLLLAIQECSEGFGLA

Biological target: PD-L1-Flag (human) (UniProt Q9NZQ7)
Test: affinity purification with mass spectrometry; lysate of HEK-293T cells with stable PD-L1-Flag or Vector-Flag in polysome buffer (25 mM Tris-HCl pH 7.5, 150 mM KCl, 0.5 mM DTT, 0.5% NP-40); Flag-tag magnetic beads 4 h at 4 °C; eluted with 3X Flag peptide

## endogenous HUWE1 (HEK-293T cells) (from UniProt Q7Z6Z7 1-4374) (enzyme)
  binding: binds
